This is one part of the list.
How the values were obtained:
Test in all cases: log2 fold change, soluble protein after heating vs DMSO (PISA); higher = thermal stabilisation; K562 lysate, 10 uM; active = over 0.2 and 3.5 SD of the protein, either way, in both replicates (recomputed)
[1] = compound: C1=CC=C(C=C1)[C@H](COC2=CC3=C(C=C2)NC(=O)N3)NC(=O)C4=CC=CN(C4=O)CC5=CC(=C(C=C5)F)F
In short: (§1)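 To prepare the extract, K562 pellets were dounce-homogenised in PBS pH 7.4 with 1 mM MgCl2, giving crude material at 1 mg/mL protein. This was treated with 10 μM compound for 30 min, then heated in aliquots for 3 min over 48°C-58°C before pooling and addition of NP-40 to 0.5% at 4°C. Centrifugation at 21,000xg for 90 min left soluble protein in the supernatant, which TMTpro 16plex LC-MS/MS quantified with equalised channel sums. Results are log-two fold changes in thermal stability compared with solvent controls, from duplicates.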

By UniProt entry, the sequences of proteins in these tests, tags left out. Where a name states a change or a piece, a line headed by the entry shows the natural chain unless it says otherwise.
UniProt Q2M296: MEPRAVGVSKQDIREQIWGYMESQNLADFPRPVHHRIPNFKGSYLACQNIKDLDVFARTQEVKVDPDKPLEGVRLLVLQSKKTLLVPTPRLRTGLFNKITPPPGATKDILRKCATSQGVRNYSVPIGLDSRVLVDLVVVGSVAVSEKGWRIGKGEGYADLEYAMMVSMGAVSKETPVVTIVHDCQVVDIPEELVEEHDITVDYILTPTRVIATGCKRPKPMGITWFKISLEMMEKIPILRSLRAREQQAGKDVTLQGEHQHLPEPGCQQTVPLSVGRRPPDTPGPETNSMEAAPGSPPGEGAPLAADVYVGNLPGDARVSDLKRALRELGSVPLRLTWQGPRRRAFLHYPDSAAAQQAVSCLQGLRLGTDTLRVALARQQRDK
UniProt O75431: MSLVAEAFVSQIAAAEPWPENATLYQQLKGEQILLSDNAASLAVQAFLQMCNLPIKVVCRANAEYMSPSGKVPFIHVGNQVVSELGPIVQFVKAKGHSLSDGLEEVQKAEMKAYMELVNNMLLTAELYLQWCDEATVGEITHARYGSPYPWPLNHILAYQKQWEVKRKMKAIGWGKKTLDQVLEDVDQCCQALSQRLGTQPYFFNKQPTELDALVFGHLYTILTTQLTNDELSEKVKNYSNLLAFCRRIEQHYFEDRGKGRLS
UniProt Q9UGC7: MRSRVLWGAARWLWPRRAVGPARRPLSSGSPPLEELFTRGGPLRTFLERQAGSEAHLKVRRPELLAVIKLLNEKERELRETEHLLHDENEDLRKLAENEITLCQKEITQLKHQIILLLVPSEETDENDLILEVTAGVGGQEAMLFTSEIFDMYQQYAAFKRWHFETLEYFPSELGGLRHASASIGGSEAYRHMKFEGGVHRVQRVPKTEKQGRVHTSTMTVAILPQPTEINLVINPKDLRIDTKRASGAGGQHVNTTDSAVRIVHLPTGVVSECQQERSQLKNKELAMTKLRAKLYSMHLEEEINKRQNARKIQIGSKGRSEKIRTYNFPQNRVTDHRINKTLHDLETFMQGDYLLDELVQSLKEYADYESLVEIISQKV
UniProt Q99707: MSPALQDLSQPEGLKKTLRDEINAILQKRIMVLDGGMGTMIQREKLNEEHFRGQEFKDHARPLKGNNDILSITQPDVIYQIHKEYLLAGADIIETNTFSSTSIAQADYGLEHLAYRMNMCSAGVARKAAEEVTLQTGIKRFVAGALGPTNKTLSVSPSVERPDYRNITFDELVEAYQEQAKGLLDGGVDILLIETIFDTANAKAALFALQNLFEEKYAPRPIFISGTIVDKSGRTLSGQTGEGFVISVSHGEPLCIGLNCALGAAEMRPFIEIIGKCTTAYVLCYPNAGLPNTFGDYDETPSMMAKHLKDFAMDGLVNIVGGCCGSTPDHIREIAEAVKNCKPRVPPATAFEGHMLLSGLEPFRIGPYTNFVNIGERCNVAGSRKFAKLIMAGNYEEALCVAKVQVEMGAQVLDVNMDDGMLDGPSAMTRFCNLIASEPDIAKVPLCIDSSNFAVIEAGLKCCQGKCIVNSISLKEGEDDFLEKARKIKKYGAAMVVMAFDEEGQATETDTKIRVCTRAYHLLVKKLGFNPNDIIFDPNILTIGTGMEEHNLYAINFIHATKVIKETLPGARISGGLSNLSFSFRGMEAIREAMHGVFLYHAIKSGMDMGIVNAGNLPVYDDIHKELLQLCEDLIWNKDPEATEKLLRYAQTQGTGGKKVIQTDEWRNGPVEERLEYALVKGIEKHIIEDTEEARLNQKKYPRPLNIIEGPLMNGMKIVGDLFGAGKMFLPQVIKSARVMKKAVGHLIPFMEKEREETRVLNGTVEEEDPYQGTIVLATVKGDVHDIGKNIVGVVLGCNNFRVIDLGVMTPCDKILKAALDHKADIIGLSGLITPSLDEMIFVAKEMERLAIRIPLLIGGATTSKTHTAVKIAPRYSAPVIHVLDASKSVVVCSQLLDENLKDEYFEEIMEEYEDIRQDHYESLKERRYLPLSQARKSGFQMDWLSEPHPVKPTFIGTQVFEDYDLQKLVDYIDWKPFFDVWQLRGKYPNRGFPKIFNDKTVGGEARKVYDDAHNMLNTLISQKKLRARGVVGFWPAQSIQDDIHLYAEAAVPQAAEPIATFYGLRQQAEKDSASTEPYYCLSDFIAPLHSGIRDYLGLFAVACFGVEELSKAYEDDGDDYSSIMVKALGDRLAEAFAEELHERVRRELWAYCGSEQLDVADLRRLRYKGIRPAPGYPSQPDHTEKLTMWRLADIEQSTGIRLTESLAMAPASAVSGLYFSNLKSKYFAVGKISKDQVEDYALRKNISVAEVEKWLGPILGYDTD
UniProt P03905, whole entry, looked up: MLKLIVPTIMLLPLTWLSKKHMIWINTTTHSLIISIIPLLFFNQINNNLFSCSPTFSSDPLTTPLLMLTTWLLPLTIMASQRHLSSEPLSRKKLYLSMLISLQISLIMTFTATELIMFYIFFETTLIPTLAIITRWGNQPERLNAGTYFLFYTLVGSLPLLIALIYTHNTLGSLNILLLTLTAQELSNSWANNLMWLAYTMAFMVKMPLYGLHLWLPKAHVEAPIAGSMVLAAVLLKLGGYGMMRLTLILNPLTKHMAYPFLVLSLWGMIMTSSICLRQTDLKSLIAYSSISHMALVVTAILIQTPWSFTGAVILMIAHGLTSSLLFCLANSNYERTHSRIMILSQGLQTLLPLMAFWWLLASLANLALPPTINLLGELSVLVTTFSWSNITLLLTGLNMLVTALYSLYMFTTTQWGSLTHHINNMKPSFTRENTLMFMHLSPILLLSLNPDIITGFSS
UniProt P52701: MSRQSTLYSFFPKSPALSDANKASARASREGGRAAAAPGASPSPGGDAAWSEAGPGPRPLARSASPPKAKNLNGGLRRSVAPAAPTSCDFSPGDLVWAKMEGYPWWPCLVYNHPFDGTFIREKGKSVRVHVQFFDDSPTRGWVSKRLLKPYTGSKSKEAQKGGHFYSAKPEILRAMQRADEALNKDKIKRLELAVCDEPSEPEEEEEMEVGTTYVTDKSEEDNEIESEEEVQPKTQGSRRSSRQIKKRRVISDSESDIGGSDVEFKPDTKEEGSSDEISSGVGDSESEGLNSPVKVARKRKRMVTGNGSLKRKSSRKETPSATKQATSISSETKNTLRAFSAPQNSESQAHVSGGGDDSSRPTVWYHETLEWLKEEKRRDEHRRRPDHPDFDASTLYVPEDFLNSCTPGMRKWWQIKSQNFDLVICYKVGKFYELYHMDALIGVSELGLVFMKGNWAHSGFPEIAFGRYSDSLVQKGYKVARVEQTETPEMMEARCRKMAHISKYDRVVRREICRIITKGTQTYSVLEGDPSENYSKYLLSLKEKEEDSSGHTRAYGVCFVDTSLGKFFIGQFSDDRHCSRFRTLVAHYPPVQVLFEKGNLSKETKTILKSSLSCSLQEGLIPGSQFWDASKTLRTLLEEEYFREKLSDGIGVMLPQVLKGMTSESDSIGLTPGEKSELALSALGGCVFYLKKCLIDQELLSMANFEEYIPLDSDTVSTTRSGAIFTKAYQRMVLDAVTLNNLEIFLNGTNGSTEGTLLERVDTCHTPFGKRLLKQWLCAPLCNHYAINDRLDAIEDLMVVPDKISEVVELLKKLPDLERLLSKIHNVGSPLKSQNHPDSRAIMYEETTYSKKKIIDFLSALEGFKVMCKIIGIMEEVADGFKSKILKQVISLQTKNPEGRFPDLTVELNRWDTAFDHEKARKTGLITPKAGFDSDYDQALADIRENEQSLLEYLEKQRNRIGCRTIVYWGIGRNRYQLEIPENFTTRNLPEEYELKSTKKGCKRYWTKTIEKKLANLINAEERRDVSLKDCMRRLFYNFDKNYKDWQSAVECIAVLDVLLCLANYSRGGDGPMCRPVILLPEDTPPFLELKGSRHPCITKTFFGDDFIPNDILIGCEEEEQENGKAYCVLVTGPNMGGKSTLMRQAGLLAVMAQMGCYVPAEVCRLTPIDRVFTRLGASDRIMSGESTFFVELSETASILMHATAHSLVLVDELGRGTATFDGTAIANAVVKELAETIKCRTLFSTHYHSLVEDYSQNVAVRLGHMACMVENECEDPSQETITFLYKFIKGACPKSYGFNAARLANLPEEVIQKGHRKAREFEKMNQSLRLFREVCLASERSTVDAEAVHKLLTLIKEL
UniProt Q9ULH7: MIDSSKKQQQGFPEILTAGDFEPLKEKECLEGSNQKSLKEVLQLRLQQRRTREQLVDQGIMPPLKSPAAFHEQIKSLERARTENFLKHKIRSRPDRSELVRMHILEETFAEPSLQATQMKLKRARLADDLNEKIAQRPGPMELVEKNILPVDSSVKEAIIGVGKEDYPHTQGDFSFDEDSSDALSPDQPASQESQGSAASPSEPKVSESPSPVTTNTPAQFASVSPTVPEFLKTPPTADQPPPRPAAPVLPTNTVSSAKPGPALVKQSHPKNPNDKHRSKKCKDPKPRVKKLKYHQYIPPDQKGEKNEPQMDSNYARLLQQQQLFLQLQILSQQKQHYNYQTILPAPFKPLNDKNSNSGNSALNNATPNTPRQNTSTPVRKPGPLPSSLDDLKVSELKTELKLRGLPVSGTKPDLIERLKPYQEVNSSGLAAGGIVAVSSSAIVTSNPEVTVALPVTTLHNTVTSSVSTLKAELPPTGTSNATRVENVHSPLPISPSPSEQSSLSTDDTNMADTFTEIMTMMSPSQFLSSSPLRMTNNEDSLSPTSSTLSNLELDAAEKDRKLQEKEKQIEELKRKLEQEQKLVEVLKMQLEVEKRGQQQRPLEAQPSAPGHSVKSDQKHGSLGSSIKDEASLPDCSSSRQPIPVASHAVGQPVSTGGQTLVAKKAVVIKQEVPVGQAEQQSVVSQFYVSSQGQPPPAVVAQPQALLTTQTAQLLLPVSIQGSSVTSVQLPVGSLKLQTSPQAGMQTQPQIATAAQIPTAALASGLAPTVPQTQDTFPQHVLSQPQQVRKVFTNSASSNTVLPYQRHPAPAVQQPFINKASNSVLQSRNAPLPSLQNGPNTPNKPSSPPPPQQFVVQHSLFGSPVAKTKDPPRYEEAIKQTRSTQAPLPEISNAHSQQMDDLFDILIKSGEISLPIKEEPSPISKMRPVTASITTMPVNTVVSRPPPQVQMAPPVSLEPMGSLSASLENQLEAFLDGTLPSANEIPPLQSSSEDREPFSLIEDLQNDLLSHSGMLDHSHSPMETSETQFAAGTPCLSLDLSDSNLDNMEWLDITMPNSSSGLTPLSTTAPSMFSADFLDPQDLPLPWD
UniProt Q9Y3D2: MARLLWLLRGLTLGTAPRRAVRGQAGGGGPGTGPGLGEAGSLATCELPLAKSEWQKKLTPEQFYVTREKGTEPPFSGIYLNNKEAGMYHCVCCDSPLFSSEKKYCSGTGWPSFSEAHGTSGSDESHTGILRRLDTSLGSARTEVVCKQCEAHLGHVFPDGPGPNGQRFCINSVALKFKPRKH
UniProt Q6P444: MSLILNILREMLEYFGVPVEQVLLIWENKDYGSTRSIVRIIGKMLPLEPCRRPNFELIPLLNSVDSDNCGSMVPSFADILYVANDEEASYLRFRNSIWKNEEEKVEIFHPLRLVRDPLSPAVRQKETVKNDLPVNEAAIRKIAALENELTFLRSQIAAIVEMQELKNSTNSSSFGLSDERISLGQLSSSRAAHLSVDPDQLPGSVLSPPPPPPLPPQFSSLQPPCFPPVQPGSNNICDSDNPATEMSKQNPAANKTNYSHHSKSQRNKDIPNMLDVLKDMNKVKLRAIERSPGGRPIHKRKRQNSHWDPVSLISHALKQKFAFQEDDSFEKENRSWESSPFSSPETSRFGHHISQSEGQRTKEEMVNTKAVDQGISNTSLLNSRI
UniProt P03891, whole entry, looked up: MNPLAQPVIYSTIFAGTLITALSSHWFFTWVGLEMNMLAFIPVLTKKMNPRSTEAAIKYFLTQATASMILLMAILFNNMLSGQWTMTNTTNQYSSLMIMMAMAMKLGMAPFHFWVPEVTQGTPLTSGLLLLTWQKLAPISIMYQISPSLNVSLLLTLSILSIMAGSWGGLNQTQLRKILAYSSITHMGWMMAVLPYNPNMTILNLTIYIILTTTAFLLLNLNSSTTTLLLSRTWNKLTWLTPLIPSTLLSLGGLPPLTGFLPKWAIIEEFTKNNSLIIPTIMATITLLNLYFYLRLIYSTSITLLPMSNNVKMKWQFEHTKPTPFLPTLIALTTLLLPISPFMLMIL
UniProt Q13505: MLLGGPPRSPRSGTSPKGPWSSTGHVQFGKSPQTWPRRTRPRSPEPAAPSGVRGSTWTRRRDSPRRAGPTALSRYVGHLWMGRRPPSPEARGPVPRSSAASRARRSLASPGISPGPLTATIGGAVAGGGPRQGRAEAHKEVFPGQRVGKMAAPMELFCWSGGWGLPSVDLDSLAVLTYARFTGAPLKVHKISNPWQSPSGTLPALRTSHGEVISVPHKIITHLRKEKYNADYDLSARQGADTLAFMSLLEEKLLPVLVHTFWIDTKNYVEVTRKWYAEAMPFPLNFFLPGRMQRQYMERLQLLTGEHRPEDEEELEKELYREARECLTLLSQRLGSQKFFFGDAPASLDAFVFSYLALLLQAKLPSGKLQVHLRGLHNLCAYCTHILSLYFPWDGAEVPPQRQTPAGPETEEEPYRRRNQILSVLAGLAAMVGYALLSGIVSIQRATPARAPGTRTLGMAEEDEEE

[2] = compound: CC1=C(SC2=C1C(=N[C@H](C3=NN=C(N32)C)CC(=O)N)C4=CC=C(C=C4)Cl)C
In short: as §1

[3] = compound: CC1=C2C(=CC=C1)N=C(N(C2=O)C3=CC=CC=C3C)CN4C=NC5=C(N=CN=C54)N
In short: as §1

[4] = compound: Cc1sc2c(c1C)C(c1ccc(Cl)cc1)=N[C@@H](CC(=O)OC(C)(C)C)c1nnc(C)n1-2
In short: as §1

[5] = compound: c1ccc([C@@H]2C[C@H]2NC2CCNCC2)cc1
In short: as §1

Measured: log2 fold change

MRPL57 (UniProt Q9BQC6)
inactive: [1] -0.049 | [2] 0.038 | [3] -0.111 | [4] 0.027 | [5] -0.061

MRPS18B (UniProt Q9Y676)
inactive: [1] 0.022 | [2] 0.068 | [3] -0.024 | [4] 0.038 | [5] 0.028

MTHFD2 (UniProt P13995)
inactive: [1] 0.006 | [2] -0.022 | [3] 0.004 | [4] 0.033 | [5] -0.028

MSI2 (UniProt Q96DH6)
inactive: [1] -0.007 | [2] -0.007 | [3] -0.001 | [4] 0.048 | [5] 0.071

MRPL3 (UniProt P09001)
inactive: [1] 0 | [2] 0.023 | [3] 0.036 | [4] 0.012 | [5] -0.01

MRPL50 (UniProt Q8N5N7)
inactive: [1] 0.145 | [2] -0.073 | [3] -0.013 | [4] -0.04 | [5] -0.013

MTRR isoform 1 (UniProt Q9UBK8)
inactive: [1] -0.088 | [2] 0.016 | [3] -0.006 | [4] -0.031 | [5] 0.024

MTHFSD isoform 3 (UniProt Q2M296)
inactive: [1] -0.005 | [2] 0.045 | [3] -0.045 | [4] -0.018 | [5] -0.125

MRPL48 (UniProt Q96GC5)
inactive: [1] -0.049 | [2] 0.065 | [3] -0.043 | [4] 0.016 | [5] 0.063

MRPS18C (UniProt Q9Y3D5)
inactive: [1] -0.072 | [2] 0.048 | [3] 0.045 | [4] -0.109 | [5] -0.005

MTTP (UniProt P55157)
inactive: [1] -0.074 | [2] 0.18

MRPL47 (UniProt Q9HD33)
inactive: [1] -0.014 | [2] 0.065 | [3] -0.024 | [4] 0.02 | [5] 0.04

MRPL44 (UniProt Q9H9J2)
inactive: [1] -0.015 | [2] -0.024 | [3] 0.053 | [4] -0.007 | [5] 0.011

MTX2 (UniProt O75431)
inactive: [1] 0.019 | [2] 0.022 | [3] 0.022 | [4] 0.057 | [5] 0.021

MRPS10 (UniProt P82664)
inactive: [1] 0.072 | [2] 0.021 | [3] 0.092 | [4] -0.022 | [5] 0.022

MTCL1 (UniProt Q9Y4B5)
inactive: [1] 0.045 | [2] 0.02 | [3] 0.121 | [4] -0.066

MRPS27 isoform 2 (UniProt Q92552)
inactive: [1] -0.02 | [2] 0.035 | [3] 0.052 | [4] 0.036 | [5] -0.014

MRPL52 (UniProt Q86TS9)
inactive: [1] -0.035 | [2] 0.062 | [3] -0.023 | [4] -0.042 | [5] -0.036

MTRF1L (UniProt Q9UGC7)
inactive: [1] -0.024 | [2] -0.022 | [3] -0.155 | [4] -0.02 | [5] -0.075

MT-CO1 (UniProt P00395)
inactive: [1] -0.004 | [2] -0.096 | [3] -0.06 | [4] -0.061 | [5] -0.002

MT-CO2 (UniProt P00403)
inactive: [1] -0.111 | [2] 0.013 | [3] -0.001 | [4] -0.031 | [5] 0.14

MRPL41 (UniProt Q8IXM3)
inactive: [1] -0.03 | [2] 0.029 | [3] 0.041 | [4] 0.011 | [5] -0.009

MTDH (UniProt Q86UE4)
inactive: [1] 0.025 | [2] 0.009 | [3] -0.016 | [4] -0.001 | [5] -0.024

MTR (UniProt Q99707)
inactive: [1] -0.024 | [2] 0.014 | [3] 0.006 | [4] 0.003 | [5] -0.014

MT-ND4 (UniProt P03905)
inactive: [1] -0.116 | [2] -0.042 | [3] 0.021 | [4] -0.086 | [5] -0.063

MRPS31 (UniProt Q92665)
inactive: [1] -0.019 | [2] -0.048 | [3] 0.046 | [4] 0.014 | [5] 0.014

MT-ND1 (UniProt P03886)
inactive: [1] -0.057 | [2] -0.098 | [3] -0.055 | [4] -0.077 | [5] -0.039

Reprinted from the results shown (12 entries):
MTX2 (UniProt O75431)
inactive: [1] 0.019 | [2] 0.022 | [3] 0.022 | [4] 0.057 | [5] 0.021

MRPS10 (UniProt P82664)
inactive: [1] 0.072 | [2] 0.021 | [3] 0.092 | [4] -0.022 | [5] 0.022

MTCL1 (UniProt Q9Y4B5)
inactive: [1] 0.045 | [2] 0.02 | [3] 0.121 | [4] -0.066

MRPS27 isoform 2 (UniProt Q92552)
inactive: [1] -0.02 | [2] 0.035 | [3] 0.052 | [4] 0.036 | [5] -0.014

MRPL52 (UniProt Q86TS9)
inactive: [1] -0.035 | [2] 0.062 | [3] -0.023 | [4] -0.042 | [5] -0.036

MTRF1L (UniProt Q9UGC7)
inactive: [1] -0.024 | [2] -0.022 | [3] -0.155 | [4] -0.02 | [5] -0.075

MT-CO1 (UniProt P00395)
inactive: [1] -0.004 | [2] -0.096 | [3] -0.06 | [4] -0.061 | [5] -0.002

MT-CO2 (UniProt P00403)
inactive: [1] -0.111 | [2] 0.013 | [3] -0.001 | [4] -0.031 | [5] 0.14

MRPL41 (UniProt Q8IXM3)
inactive: [1] -0.03 | [2] 0.029 | [3] 0.041 | [4] 0.011 | [5] -0.009

MTDH (UniProt Q86UE4)
inactive: [1] 0.025 | [2] 0.009 | [3] -0.016 | [4] -0.001 | [5] -0.024

MTR (UniProt Q99707)
inactive: [1] -0.024 | [2] 0.014 | [3] 0.006 | [4] 0.003 | [5] -0.014

MT-ND4 (UniProt P03905)
inactive: [1] -0.116 | [2] -0.042 | [3] 0.021 | [4] -0.086 | [5] -0.063

(continued)

MRPS6 (UniProt P82932)
inactive: [1] -0.016 | [2] 0.049 | [3] 0.041 | [4] -0.065 | [5] 0.018

MRPL51 (UniProt Q4U2R6)
inactive: [1] -0.001 | [2] -0.053 | [3] 0.043 | [4] 0.066 | [5] -0.109

MRPS33 (UniProt Q9Y291)
inactive: [1] 0.042 | [2] -0.045 | [3] -0.043 | [4] 0.078 | [5] 0.038

MTMR14 (UniProt Q8NCE2)
inactive: [1] -0.031 | [2] 0.018 | [3] 0.03 | [4] -0.01 | [5] 0.028

MRPS9 (UniProt P82933)
inactive: [1] 0.025 | [2] 0.053 | [3] 0.055 | [4] 0.008 | [5] 0.05

MTMR2 (UniProt Q13614)
inactive: [1] 0.009 | [2] 0.033 | [3] -0.003 | [4] 0.013 | [5] 0.015

MTOR (UniProt P42345)
inactive: [1] -0.022 | [2] 0.004 | [3] 0.013 | [4] 0.014 | [5] 0.029

MSH6 (UniProt P52701)
inactive: [1] -0.021 | [2] 0.01 | [3] 0.034 | [4] 0.006 | [5] 0.014

MRTFB isoform 5 (UniProt Q9ULH7)
inactive: [1] 0.016 | [2] -0.015 | [3] 0.002 | [4] 0.033 | [5] -0.019

MRTO4 (UniProt Q9UKD2)
inactive: [1] 0.003 | [2] 0.032 | [3] 0.024 | [4] 0.056 | [5] 0.005

MTHFD1, A0A384N5Y3
inactive: [1] -0.003 | [2] -0.002 | [3] 0.015 | [4] 0.018 | [5] 0.071

MRPL46 (UniProt Q9H2W6)
inactive: [1] 0.022 | [2] -0.012 | [3] 0.021 | [4] 0.026 | [5] 0.199

MRPL55 isoform 2 (UniProt Q7Z7F7)
inactive: [1] -0.044 | [2] 0.089 | [3] 0.038 | [4] 0.006 | [5] 0.062

MRPS25 (UniProt P82663)
inactive: [1] 0.081 | [2] 0.012 | [3] 0.029 | [4] 0.036 | [5] 0.105

MRPL54 (UniProt Q6P161)
inactive: [1] -0.031 | [2] 0.027 | [3] -0.04 | [4] -0.075 | [5] 0.061

MSRB2 (UniProt Q9Y3D2)
inactive: [1] -0.009 | [2] -0.032 | [3] -0.13 | [4] -0.013 | [5] 0.028

MSH3 (UniProt P20585)
inactive: [1] 0.018 | [2] 0.014 | [3] 0.039 | [4] -0.008 | [5] 0.04

MRPL28 (UniProt Q13084)
inactive: [1] -0.002 | [2] -0.062 | [3] -0.026 | [4] 0.066 | [5] 0.356

MTFP1 (UniProt Q9UDX5)
inactive: [1] 0.005 | [2] -0.058 | [3] 0.03 | [4] 0.079 | [5] -0.222

MRPL53 (UniProt Q96EL3)
inactive: [1] -0.056 | [2] -0.102 | [3] 0.079 | [4] -0.026 | [5] -0.093

MTFR2 (UniProt Q6P444)
inactive: [1] -0.025 | [2] -0.041 | [3] 0.002 | [4] -0.043 | [5] 0.14

MT-ND2 (UniProt P03891)
inactive: [1] -0.168 | [2] -0.187 | [3] -0.029 | [4] -0.027 | [5] 0.118

MTCH2 (UniProt Q9Y6C9)
inactive: [1] 0.013 | [2] 0.001 | [3] -0.006 | [4] -0.014 | [5] -0.083

MRPL39 isoform 2 (UniProt Q9NYK5)
inactive: [1] 0.02 | [2] 0.055 | [3] 0.011 | [4] 0.019 | [5] 0.078

MTX1 (UniProt Q13505)
inactive: [1] 0.026 | [2] -0.036 | [3] -0.009 | [4] 0.011 | [5] -0.037

MTFR1L (UniProt Q9H019)
inactive: [1] -0.007 | [2] 0.037 | [3] 0.091 | [4] 0.028 | [5] -0.003
